Assay results reported in patent US9517244B2, “Therapeutic combinations for use in neoplasia” (University of Florida Research Foundation, Inc., priority 2011, dated 2016).
For at least one compound, name, drawing or mass did not settle the structure.

How the values were obtained:
Format in all cases: cell-based
[1] = tested on: GBM-LO cancer-initiating cells; experiment: spheroid viability, trypan blue exclusion assay
GBM-LO spheroids = experiment: spheroid formation assay
[2] = tested on: GBM-U87MG cancer-initiating cells; experiment: spheroid viability, trypan blue exclusion assay; conditions: GBM-U87, 168 h
U87MG spheroids = experiment: spheroid formation assay
[3] = tested on: Aldh1a1 and Aldh1a7 expression in GBM-L0 stem cells; experiment: qRT-PCR of aldehyde dehydrogenase genes in GBM-L0 stem cells; conditions: agent alone, 36 h
Protocol: Cells were pretreated with 2.5 μM of NSC30049 or 10 or 100 μM TMZ alone or in combination with NSC-30049 for 36 h. Then, total RNA was isolated and processed for gRT-PCR. Data presented are the mean±SE of three different measurements. […] Treatment with NSC-30049 or TMZ reduced the expression of aldehyde dehydrogenase gene Aldh1a7 in GBM-LO stem cell line in vitro, but not treatment with NSC-30049 and TMZ. Cells were pretreated with 2.5 μM of NSC30049 or 10 or 100 μM of TMZ alone or in combination with NSC-30049 for 36 h. Then, total RNA was isolated and processed for qRT-PCR. Data presented are the mean±SE of three different measurements.
Without being bound to a particular theory, the effect of administration of NSC-30049 in combination with temozolomide (TMZ) on the expression of self-renewal marker genes of […] was analyzed. Self-renewal marker genes are highly expressed in colon cancer stem cells compared to human parental cancer cells. qRT-PCR data of CD133+, Oct4, Sox2 and Nanog gene expression levels of GBM-L0 stem cells was obtained (FIG. 14A). Cells were pretreated with 2.5 μM of NSC30049 or 10 or 100 μM of TMZ alone or in combination with NSC-30049 for 36 h. Then, total RNA was isolated and processed for qRT-PCR. Data presented are the mean±SE of three different measurements. […]

[4] = temozolomide alone, 10 or 100 μM, 168 h
[5] = temozolomide in combination with 2.5 μM NSC-30049, 168 h

SMILES: Cn1nnc2c(C(N)=O)ncn2c1=O [TMZ, Temozolomide]
- viability of cancer-initiating cells [1, 4]: decreased the viability
- viability of cancer-initiating cells [1, 5]: reduced compared to temozolomide alone
- number of spheroids formed (GBM-LO spheroids; [4]): reduced
- number of spheroids formed (GBM-LO spheroids; [5]): reduced
- viability of cancer-initiating cells ([2]; temozolomide alone, 10 or 100 μM): decreased the viability
- viability of cancer-initiating cells ([2]; temozolomide in combination with 2.5 μM NSC-30049): reduced compared to temozolomide alone
- number of spheroids formed (U87MG spheroids; [4]): reduced
- number of spheroids formed (U87MG spheroids; [5]): reduced
- expression of Aldh1a7 [3]: inhibited
